The text below walks through data of patent WO2006132352A1.

This experiment deals with MG10 (Gln213 to Ala231 of the human Mpl amino acid sequence) and GST fusion protein (human) (UniProt P40238). The experiment in a line: affinity column of immobilised MG10-GST, elution with 100 mM Glycine-HCl pH 3.5.

Residue numbers refer to the chain shown, from its start. No constants are given. Whether binding was seen depends on the method and setting. Some entries that bind do so weakly or less than the wild type.

B1: hVB22B u2-wz4(v1) sc(Fv)2 (scFv)
scFv: QVQLVQSGPEVKKPGASVKVSCKASGYTFTNSWMNWVRERPGKGLEWIGRIYPGDGETIYNGKFRVRVTITADESTSTAYMQLSSLRSEDTAVYYCARGYDDYSFAYWGQGTTVTVSSGGGGSGGGGSGGGGSDIVMTQSPLSLPVTPGEPASISCRSSKSLLHSNGNTYLYWFLEKPGQSPQLLIYRMSNLASGVPDRFSGSGSGTDFTLKISRVEAEDVGVYYCMQHIEYPFTFGQGTKLEIKGGGGSGGGGSGGGGSQVQLVQSGPEVKKPGASVKVSCKASGYTFTNSWMNWVRKRPGKGLEWIGRIYPGDGETIYNGKFRVRVTITADESTSTAYMQLSSLRSEDTAVYYCARGYDDYSFAYWGQGTTVTVSSGGGGSGGGGSGGGGSDIVMTQSPLSLPVTPGEPASISCRSSKSLLHSNGNTYLYWFLKKPGQSPQLLIYRMSNLASGVPDRFSGSGSGTDFTLKISRVEAEDVGVYYCMQHIEYPFTFGQGTKLEIK
For the molecule B1, the binding result was “binds”.

B2: hVB22B u2-wz4(v3) sc(Fv)2 (scFv)
scFv: B1 scFv with E176K, K436E
Regarding B2, the binding result was “binds”.
